Results on 53 compounds are retold here after PubChem BioAssay AID1487 (National Center for Advancing Translational Sciences (NCATS), 2009).

Several values for one entry are separate records, joined by “and”; a condition that tells them apart may be missing. Identical values can stand only once. Some of the results follow. Further columns of the screen follow, without active or inactive calls. Most of these compounds were active or inconclusive in the main read-out, so they are no random draw. Potencies come from curve fits of mixed quality, noted in brackets.

The test is described as follows: qHTS Assay for Modulators of Lamin A Splicing. The settings on record: HeLa LMNA splicing GFP/RFP minigene ratio, 48 h. The procedure, abridged: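 S3 HeLa cells stably expressing lamin A-EGFP splicing minigene plus DsRed2, 600 cells/well, 48 h compound exposure at 37C. Laser-scanning cytometry; analysed as GFP (500-530 nm)/RFP (575-640 nm) total intensity ratio; 0.5% DMSO vehicle.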
A general note: In qHTS, concentration-response curves come from the screen itself.

Where [1] appears, read: measured here: GFP splicing reporter channel.
[2] abbreviates: measured here: RFP viability control channel.

Broadly, the AC50 is the concentration giving half of the maximal activity seen. For the compound `Cc1ccc2c(C)nc(N/C(N)=N/S(=O)(=O)c3ccc([N+](=O)[O-])cc3)nc2c1`, the AC50 is 0.0282 µM [rising, full curve, poor fit] under setting [1] and 35.5 µM [rising, single point] under setting [2].
Consider `COc1cccc(N=Nc2c(N)[nH][nH]c2=O)c1`, for which the AC50 was 10 µM [falling, partial curve] under setting [1] and 11.2 µM [falling, partial curve, poor fit] under setting [2].
Turning to `N#Cc1ccc(CSc2nnc(-c3ccncc3)n2CCc2ccccc2)cc1`, the AC50 is, setting by setting: under setting [1], 11.2 µM [rising, single point]; under setting [2], 15.8 µM [rising, single point].
Take `CC(=O)C1=C(C)N(Cc2ccccc2)C(=O)N[C@@H]1c1cccc(C(F)(F)F)c1`: under setting [2], the AC50 was 35.5 µM [rising, single point].
On to `Cc1nc2sccn2c1-c1nc(-c2cc3ccccc3o2)cs1`, for which, under setting [1], the AC50 was 39.8 µM [rising, partial curve, poor fit].
Consider `N#CC(C(=O)NC1CC1)c1nc2ccccc2nc1N1CCCC1` (centres undefined), for which, under setting [2], the AC50 is 35.5 µM [rising, single point].
For the compound `COc1cc(Cn2c(N)c(C#N)c3nc4ccccc4nc32)cc(OC)c1`, the AC50 reads like this: under setting [1], 2.82 µM [rising, partial curve, poor fit]; under setting [2], 2.82 µM [rising, partial curve, poor fit].
Turning to `Cc1cc(=O)oc2cc(OCc3ccc(C(=O)N4CCN(c5ccc([N+](=O)[O-])cc5)CC4)cc3)ccc12`, the AC50 under setting [2] was 15.8 µM [rising, partial curve].
For the compound `CCOC(=O)c1c(NC(=O)COc2ncnc3ccccc23)sc(C)c1C`, the AC50 under setting [1] was 11.2 µM [rising, partial curve].
On to `O=C(Nc1cccc([N+](=O)[O-])c1)C(=O)N1CCCCC1`, for which the AC50 under setting [2] was 0.00316 µM [falling, full curve, poor fit].
In the case of `Fc1ccc(Nc2ncncc2-c2ccccc2C(F)(F)F)cc1`, the AC50 under setting [1] is 0.1 µM [falling, full curve, poor fit].
With `Cc1cccc(-n2nnnc2SCn2nnc3ccccc3c2=O)c1`, under setting [2], the AC50 was 14.1 µM [rising, single point].
`CC(C)(CNC(=S)NCCc1ccccc1)CNC(=S)NCCc1ccccc1`: the AC50 under setting [1] is 15.8 µM [rising, single point] and the AC50 under setting [2] is 20 µM [rising, partial curve].
With `O=C(CNC(=O)c1ccco1)OCc1ccc(C(=O)c2ccccc2)cc1`, the AC50 is, setting by setting: under setting [1], 35.5 µM [falling, single point]; under setting [2], 17.8 µM [falling, partial curve, poor fit].
In the case of `CCn1cnc2c(cnn2-c2ccccc2)c1=O`, under setting [1], the AC50 is 14.1 µM [rising, single point].
With `Cc1nn(C)c(C)c1CNC(=O)c1cc2n(n1)C(C(F)(F)F)CC(c1cccs1)N2` (centres undefined), the AC50 is 10 µM [rising, partial curve] under setting [1] and 14.1 µM [rising, partial curve] under setting [2].
For `Cc1nc(N2CCCC2)c2c(C(=O)Nc3ccc(C)c(Cl)c3)c(C)oc2n1`, the AC50 under setting [2] is 1.26 µM [rising, full curve, poor fit].
As for `COc1ccc(-c2noc(CN(C)C(=O)Nc3ccccc3)n2)cc1`, the AC50 under setting [2] is 22.4 µM [rising, partial curve, poor fit].
`COc1ccc(S(=O)(=O)N(CC(=O)N2CCN(c3ccccc3)CC2)c2ccccc2)cc1`: the AC50 under setting [2] was 31.6 µM [rising, single point].
Turning to `CCC(=O)N1CCN(c2ccccc2NC(=O)c2ccc(-c3cccc([N+](=O)[O-])c3)o2)CC1`, under setting [2], the AC50 was 3.98 µM [rising, full curve].
In the case of `Cc1ccc(/C=N/NC(=O)CSc2nc3ccccc3c(=O)n2-c2ccccc2)s1`, the AC50 is, setting by setting: under setting [1], 0.178 µM [rising, full curve, poor fit]; under setting [2], 0.141 µM [rising, full curve, poor fit].
For the compound `O=c1c2cn[nH]c2nc(SCc2ccc3c(c2)OCCO3)n1-c1ccccc1`, the AC50 under setting [1] is 35.5 µM [rising, single point].
Take `Cc1ccc(OCc2nc(C#N)c(NCCCn3ccnc3)o2)cc1`: the AC50 under setting [2] is 15.8 µM [rising, single point].
Consider `COc1ccc(OC)c(Nc2ccc(Nc3cc(OC)ccc3OC)nn2)c1`, for which the AC50 under setting [2] is 17.8 µM [rising, single point].
In the case of `CC1CCCN(Cc2csc(N)n2)C1` (centres undefined), the AC50 by setting is: under setting [1], 0.0562 µM [falling, full curve, poor fit]; under setting [2], 0.02 µM [falling, full curve, poor fit].
`COc1ccc(/C=C/c2nc3ccccc3n2C)cc1`: the AC50 reads like this: under setting [1], 28.2 µM [falling, single point]; under setting [2], 35.5 µM [falling, single point].
On to `Cc1c(NC(=O)/C(C#N)=C/c2ccc(-c3ccc(Cl)cc3)o2)c(=O)n(-c2ccccc2)n1C`, for which the AC50 under setting [2] is 35.5 µM [rising, single point].
Consider `O=S(=O)(Nc1cccc(Cl)c1)c1ccc2[nH]c3c(c2c1)CCCCCC3`, for which the AC50 under setting [1] is 12.6 µM [falling, partial curve] and the AC50 under setting [2] is 22.4 µM [falling, partial curve].
Consider `CCOC(=O)Cc1nnc(NC(=O)CSc2ncc(-c3ccccc3)nn2)s1`, for which the AC50 under setting [1] was 6.31 µM [rising, single point].
For `COc1ccc(NC(=O)C2CCCN(S(=O)(=O)c3c(C)n[nH]c3C)C2)cc1` (centres undefined), under setting [2], the AC50 is 31.6 µM [rising, single point].
Consider `Clc1ccc(Nc2ccc(NCc3ccccc3)nn2)cc1`, for which the AC50 under setting [1] is 1.26 µM [rising, partial curve] and the AC50 under setting [2] was 25.1 µM [rising, single point].
For `COc1ccccc1-c1ccc2ncnc(NC3CCNCC3)c2c1`, the AC50 under setting [1] is 11.2 µM [falling, partial curve].
In the case of `Cc1coc2c1C(=O)C(=O)c1c-2ccc2c1CCCC2(C)C`, the half-maximal activity concentration (AC50) under setting [1] was 17.8 µM [falling, single point] and the half-maximal activity concentration (AC50) under setting [2] was 14.1 µM [falling, single point].
`CC(C)c1ccc(S(=O)(=O)N2CCN(C(=S)NCc3ccco3)CC2)cc1`: under setting [2], the AC50 was 25.1 µM [rising, single point].
As for `Cn1c(/N=C/c2c(O)ccc3ccccc23)nc2ccccc21`, under setting [2], the half-maximal activity concentration (AC50) is 5.62 µM [rising, single point].
Regarding `O=c1c(-c2ccccc2)nc2cnc(Oc3ccccc3)nc2n1C[C@H]1CCCO1`, the AC50 under setting [1] was 6.31 µM [falling, partial curve].
In the case of `CCCCN(CCCNC(=O)CN1N=C(c2ccccc2)CCC1=O)c1ccccc1`, under setting [1], the concentration at half-maximal activity (AC50) was 35.5 µM [falling, single point].
As to `O=C(COc1ccccc1Cl)Nc1nc2c(s1)CCCC2`, under setting [1], the half-maximal activity concentration (AC50) is 35.5 µM [falling, partial curve, poor fit].
`O=C(CSc1nc(C2CCCCC2)nc2ccccc12)NCc1ccc2c(c1)OCO2`: the AC50 under setting [2] is 15.8 µM [rising, single point].
In the case of `O=[N+]([O-])c1ccc(CN2CCN(Cc3c[nH]c4ccccc34)CC2)cc1`, the AC50 under setting [1] is 3.16 µM [falling, partial curve, poor fit].
For `COc1ccc(Br)cc1CN(C)C(C)C(=O)Nc1cc([N+](=O)[O-])ccc1OC` (centres undefined), the AC50 under setting [2] was 10 µM [rising, partial curve, poor fit].
For the compound `Cc1c(O)nc(SCC(=O)Nc2ccc3c4c(cccc24)CC3)n(-c2ccc(F)cc2)c1=O`, the AC50 is 20 µM [rising, partial curve, poor fit] under setting [1] and 6.31 µM [rising, partial curve, poor fit] under setting [2].
For the compound `CSCc1cc(N(C)C)nc(SCc2ccc(Cl)cc2Cl)n1`, the AC50 was 35.5 µM [rising, single point] under setting [1] and 31.6 µM [rising, single point] under setting [2].
In the case of `CCOC(=O)C1=C(O)c2ccccc2C(=O)/C1=C\c1ccc(C)cc1`, the AC50 runs as follows: under setting [1], 11.2 µM [rising, single point]; under setting [2], 12.6 µM [rising, partial curve].
Turning to `COc1cc(NC(=O)CN2c3cccc4cccc(c34)S2(=O)=O)cc(OC)c1OC`, under setting [2], the AC50 was 12.6 µM [rising, partial curve].
As to `CC(=O)c1cccc(NC(=S)NC(=O)c2ccccc2Br)c1`, the AC50 was 7.08 µM [rising, partial curve, poor fit] under setting [1] and 0.0562 µM [rising, full curve, poor fit] under setting [2].
Consider `CNCCCC12CCC(c3ccccc31)c1ccccc12`, for which the AC50 is 8.91 µM [falling, single point] and 14.1 nM [falling, full curve, poor fit] and 10 µM [falling, partial curve, poor fit] under setting [1]; 35.5 µM [rising, single point] and 11.2 µM [falling, single point] and 31.6 µM [rising, single point] under setting [2].
Turning to `O=C(COc1ccccc1Br)NC1CCCC1`, the AC50 runs as follows: under setting [1], 14.1 µM [rising, partial curve, poor fit]; under setting [2], 12.6 µM [rising, partial curve].
On to `O=C1C(Cl)=C(N2CCCCC2)C(=O)N1Cc1ccccc1`, for which the AC50 under setting [2] is 31.6 µM [rising, single point].
As to `CCOc1cc(CNc2ccc(CNc3ncn[nH]3)cc2)ccc1OCc1ccccc1`, the AC50 under setting [2] was 35.5 µM [rising, single point].
As for `Cc1[nH]oc(=O)c1N=Nc1ccccc1`, the AC50 reads like this: under setting [1], 17.8 µM [rising, single point]; under setting [2], 14.1 µM [rising, single point].
For the compound `COCCCNC(=O)c1ccc2nc(Cc3ccc(OC)cc3)oc2c1`, the AC50 by setting is: under setting [1], 1 µM [rising, full curve]; under setting [2], 0.631 µM [rising, full curve, poor fit].
Turning to `Cc1c(/C=N/NC(N)=O)c2ccccn2c1C(=O)c1ccc(F)cc1`, the AC50 under setting [2] is 14.1 µM [rising, single point].
